# Measurements reported in the supplement of paper PMC8728848.
# This is one part of the list.
# Legend:
# Assay in all cases: glycan array binding signal (z-score within array); higher = stronger binding
# Conditions in all cases: glycan notation: IUPAC condensed, linker removed
# [1] = biological target: Neu5Ac(a2-3)Gal(b1-3)[Neu5Ac(a2-6)]GalNAc
# Outline: (§1)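 Glycan array data came from 3228 arrays in the Consortium for Functional Glycomics database, and only arrays with an available protein sequence were kept. Glycan names were put into IUPAC-condensed notation, and columns mapping to the same glycan were averaged. The binding signal is a within-array Z-score, averaged across arrays of one protein sequence run at different concentrations or buffers and across linkers. A negative Z-score can be read as non-binding.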
# [2] = biological target: Neu5Ac(a2-3)Gal(b1-4)Glc
# Outline: as §1
# [3] = biological target: Neu5Ac(a2-3)Gal(b1-4)GlcNAc
# Outline: as §1
# [4] = biological target: Neu5Ac(a2-3)Gal(b1-4)GlcNAc(b1-3)Gal(b1-3)GlcNAc
# Outline: as §1
# [5] = biological target: Neu5Ac(a2-3)Gal(b1-4)GlcNAc(b1-3)Gal(b1-4)GlcNAc
# Outline: as §1
# [6] = biological target: Neu5Ac(a2-3)Gal(b1-4)GlcNAc(b1-3)Gal(b1-4)GlcNAc(b1-3)Gal(b1-4)GlcNAc
# Outline: as §1
# [7] = biological target: Neu5Ac(a2-3)Gal(b1-4)GlcNAc(b1-3)Gal(b1-4)[Fuc(a1-3)]GlcNAc
# Outline: as §1
# [8] = biological target: Neu5Ac(a2-3)Gal(b1-4)GlcNAc(b1-6)[Gal(b1-3)]GalNAc
# Outline: as §1
# [9] = biological target: Neu5Ac(a2-3)Gal(b1-4)GlcNAc6S
# Outline: as §1
# [10] = biological target: Neu5Ac(a2-3)Gal(b1-4)[Fuc(a1-3)]GlcNAc
# Outline: as §1
# [11] = biological target: Neu5Ac(a2-3)Gal(b1-4)[Fuc(a1-3)]GlcNAc(b1-3)Gal
# Outline: as §1
# [12] = biological target: Neu5Ac(a2-3)Gal(b1-4)[Fuc(a1-3)]GlcNAc(b1-3)Gal(b1-4)GlcNAc
# Outline: as §1
# [13] = biological target: Neu5Ac(a2-3)Gal(b1-4)[Fuc(a1-3)]GlcNAc(b1-3)Gal(b1-4)[Fuc(a1-3)]GlcNAc(b1-3)Gal(b1-4)[Fuc(a1-3)]GlcNAc
# Outline: as §1
# [14] = biological target: Neu5Ac(a2-3)Gal(b1-4)[Fuc(a1-3)]GlcNAc6S
# Outline: as §1
# [15] = biological target: Neu5Ac(a2-3)Gal6S(b1-4)GlcNAc
# Outline: as §1
# [16] = biological target: Neu5Ac(a2-3)Gal6S(b1-4)[Fuc(a1-3)]GlcNAc
# Outline: as §1
# [17] = biological target: Neu5Ac(a2-3)GalNAc
# Outline: as §1
# [18] = biological target: Neu5Ac(a2-3)GalNAc(b1-4)GlcNAc
# Outline: as §1
# [19] = biological target: Neu5Ac(a2-3)[GalNAc(b1-4)]Gal(b1-4)Glc
# Outline: as §1
# [20] = biological target: Neu5Ac(a2-3)[GalNAc(b1-4)]Gal(b1-4)GlcNAc
# Outline: as §1
# [21] = biological target: Neu5Ac(a2-3)[Neu5Ac(a2-6)]GalNAc
# Outline: as §1
# [22] = biological target: Neu5Ac(a2-6)Gal(b1-4)GlcNAc
# Outline: as §1
# [23] = biological target: Neu5Ac(a2-6)Gal(b1-4)GlcNAc(b1-2)Man(a1-3)[Neu5Ac(a2-6)Gal(b1-4)GlcNAc(b1-2)Man(a1-6)]Man(b1-4)GlcNAc(b1-4)GlcNAc
# Outline: as §1
# [24] = biological target: Neu5Ac(a2-6)Gal(b1-4)GlcNAc(b1-3)Gal(b1-4)GlcNAc
# Outline: as §1
# [25] = biological target: Neu5Ac(a2-6)Gal(b1-4)GlcNAc(b1-3)Gal(b1-4)[Fuc(a1-3)]GlcNAc(b1-3)Gal(b1-4)[Fuc(a1-3)]GlcNAc
# Outline: as §1
# [26] = biological target: Neu5Ac(a2-6)Gal(b1-4)GlcNAc6S
# Outline: as §1
# [27] = biological target: Neu5Ac(a2-6)GalNAc
# Outline: as §1
# [28] = biological target: Neu5Ac(a2-6)GalNAc(b1-4)GlcNAc
# Outline: as §1
# [29] = biological target: Neu5Ac(a2-8)Neu5Ac
# Outline: as §1
# [30] = biological target: Neu5Ac(a2-8)Neu5Ac(a2-3)Gal(b1-4)Glc
# Outline: as §1
# [31] = biological target: Neu5Ac(a2-8)Neu5Ac(a2-3)[GalNAc(b1-4)]Gal(b1-4)Glc
# Outline: as §1
# [32] = biological target: Neu5Ac(a2-8)Neu5Ac(a2-8)Neu5Ac
# Outline: as §1
# [33] = biological target: Neu5Ac(a2-8)Neu5Ac(a2-8)Neu5Ac(a2-3)Gal(b1-4)Glc
# Outline: as §1
# [34] = biological target: Neu5Ac(a2-8)Neu5Ac(a2-8)Neu5Ac(a2-3)[GalNAc(b1-4)]Gal(b1-4)Glc
# Outline: as §1
# [35] = biological target: Neu5Ac(a2-8)Neu5Ac(a2-8)Neu5Ac(a2-8)Neu5Ac(a2-3)[GalNAc(b1-4)]Gal(b1-4)Glc
# Outline: as §1
# [36] = biological target: Neu5Ac9Ac(a2-6)Gal(b1-4)GlcNAc
# Outline: as §1
# [37] = biological target: Neu5Gc(a2-3)Gal(b1-3)GlcNAc
# Outline: as §1
# [38] = biological target: Neu5Gc(a2-3)Gal(b1-3)[Fuc(a1-4)]GlcNAc
# Outline: as §1
# [39] = biological target: Neu5Gc(a2-3)Gal(b1-4)Glc
# Outline: as §1
# [40] = biological target: Neu5Gc(a2-3)Gal(b1-4)GlcNAc
# Outline: as §1
# [41] = biological target: Neu5Gc(a2-3)Gal(b1-4)[Fuc(a1-4)]GlcNAc
# Outline: as §1
# [42] = biological target: Neu5Gc(a2-6)Gal(b1-4)GlcNAc
# Outline: as §1
# [43] = biological target: Neu5Gc(a2-6)GalNAc
# Outline: as §1
binder,measurement,setting,value
"C-Reactive Protein (Homo sapiens), P02741 (protein) MEKLLCFLVLTSLSHAFGQTDMSRKAFVFPKESDTSYVSLKAPLTKPLKAFTVCLHFYTELSSTRGYSIFSYATKRQDNEILIFWSKDIGYSFTVGGSEILFEVPEVTVAPVHICTSWESASGIVEFWVDGKPRVRKSLKKGYTVGAEASIILGQEQDSFGGNFEGSQSLVGDIGNVNMWDFVLSPDEINTIYLGGPFSPNVLNWRALKYEVQGEVFTKPQLWP",glycan array binding signal (z-score),[1],0.09
same,glycan array binding signal (z-score),[2],-0.258
same,glycan array binding signal (z-score),[3],0.131
same,glycan array binding signal (z-score),[4],1.36
same,glycan array binding signal (z-score),[5],-0.055
same,glycan array binding signal (z-score),[6],-0.001
same,glycan array binding signal (z-score),[7],-0.118
same,glycan array binding signal (z-score),[8],1.51
same,glycan array binding signal (z-score),[9],1.28
same,glycan array binding signal (z-score),[10],-0.139
same,glycan array binding signal (z-score),[11],-0.111
same,glycan array binding signal (z-score),[12],0.402
same,glycan array binding signal (z-score),[13],0.731
same,glycan array binding signal (z-score),[14],-0.689
same,glycan array binding signal (z-score),[15],-0.121
same,glycan array binding signal (z-score),[16],0.578
same,glycan array binding signal (z-score),[17],0.372
same,glycan array binding signal (z-score),[18],-0.557
same,glycan array binding signal (z-score),[19],-0.489
same,glycan array binding signal (z-score),[20],-0.156
same,glycan array binding signal (z-score),[21],-0.518
same,glycan array binding signal (z-score),[22],-0.232
same,glycan array binding signal (z-score),[23],-0.304
same,glycan array binding signal (z-score),[24],-0.347
same,glycan array binding signal (z-score),[25],-0.463
same,glycan array binding signal (z-score),[26],-0.304
same,glycan array binding signal (z-score),[27],-0.521
same,glycan array binding signal (z-score),[28],-0.396
same,glycan array binding signal (z-score),[29],0.082
same,glycan array binding signal (z-score),[30],-0.528
same,glycan array binding signal (z-score),[31],-0.106
same,glycan array binding signal (z-score),[32],0.069
same,glycan array binding signal (z-score),[33],-0.257
same,glycan array binding signal (z-score),[34],0.34
same,glycan array binding signal (z-score),[35],0.158
same,glycan array binding signal (z-score),[36],-0.394
same,glycan array binding signal (z-score),[37],-0.267
same,glycan array binding signal (z-score),[38],-0.237
same,glycan array binding signal (z-score),[39],0.101
same,glycan array binding signal (z-score),[40],-0.102
same,glycan array binding signal (z-score),[41],0.164
same,glycan array binding signal (z-score),[42],0.624
same,glycan array binding signal (z-score),[43],1.02

# 3 consecutive entries from above, for reference:
binder,measurement,setting,value
"C-Reactive Protein (Homo sapiens), P02741 (protein) MEKLLCFLVLTSLSHAFGQTDMSRKAFVFPKESDTSYVSLKAPLTKPLKAFTVCLHFYTELSSTRGYSIFSYATKRQDNEILIFWSKDIGYSFTVGGSEILFEVPEVTVAPVHICTSWESASGIVEFWVDGKPRVRKSLKKGYTVGAEASIILGQEQDSFGGNFEGSQSLVGDIGNVNMWDFVLSPDEINTIYLGGPFSPNVLNWRALKYEVQGEVFTKPQLWP",glycan array binding signal (z-score),[19],-0.489
same,glycan array binding signal (z-score),[20],-0.156
same,glycan array binding signal (z-score),[21],-0.518
